This experiment concerns the target T1, BCL11A-S (short isoform of BCL11A), wild-type (human) (UniProt Q9H165).
T1 sequence: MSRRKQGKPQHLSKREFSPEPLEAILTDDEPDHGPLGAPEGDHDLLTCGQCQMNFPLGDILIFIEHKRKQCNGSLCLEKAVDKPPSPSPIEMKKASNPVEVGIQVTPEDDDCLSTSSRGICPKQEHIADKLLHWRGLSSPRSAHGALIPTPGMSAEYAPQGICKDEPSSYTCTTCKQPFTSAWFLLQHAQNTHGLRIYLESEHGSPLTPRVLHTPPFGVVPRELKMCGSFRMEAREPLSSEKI
In words: FRET or BRET; BRET in live HEK293 cells co-transfected with 6 fmol Renilla luciferase fusion (donor) and 6 fmol YFP fusion (acceptor) plasmid, 48 hr, then Enduren 60 uM for 4 hr; mean corrected BRET ratios; nuclear-targeted luciferase or YFP as controls. (In BRET a luciferase serves as donor, and the signal depends on an acceptor being close.)

These are yes or no findings as the source states them, for the method shown. In cells and extracts the contact can be indirect. Some entries that bind do so weakly or less than the wild type.

B1: BCL11A-S (short isoform of BCL11A), wild-type (protein, UniProt Q9H165-3 1-243)
chain: MSRRKQGKPQHLSKREFSPEPLEAILTDDEPDHGPLGAPEGDHDLLTCGQCQMNFPLGDILIFIEHKRKQCNGSLCLEKAVDKPPSPSPIEMKKASNPVEVGIQVTPEDDDCLSTSSRGICPKQEHIADKLLHWRGLSSPRSAHGALIPTPGMSAEYAPQGICKDEPSSYTCTTCKQPFTSAWFLLQHAQNTHGLRIYLESEHGSPLTPRVLHTPPFGVVPRELKMCGSFRMEAREPLSSEKI
Regarding B1, the binding entry is “binds”.

The values are drawn from PMC4974071.
